The data set is described as follows: Soaking treatment, amount of active penetrated inside the hair. Conditions: pH 4.2, 40 deg C.

Each structure is given as a SMILES string.

As for `O=C(O)c1cc(Cl)ccc1O` [5-Chlorosalicylic acid], the “mg/g of Cl Salicylic acid” value amounted to 19 mg/g (10 min soaking); 25 mg/g (20 mins soaking); 30 mg/g (30 mins soaking); 32 mg/g (1 hr soaking); 32.8 mg/g (2 hr soaking).

Values taken from patent publication US10632054B2, “Method for hair frizz reduction” (The Procter & Gamble Company, priority 2015, dated 2020).
